These results are taken from paper PMC7937321 (Genes and Environment, 2021).

The data set has as its system TK6 cells. The data set can be described thus: Toxicoproteomic analysis of treated TK6 cells (LC-MS/MS, DEPs, enrichment analysis). Type of data set: cell-based, human. The note with it: for DEPs: log2 fold change of ≥2. The protocol: We conducted a proteomic analysis using TK6 cells treated by 4-nitroanthranilic acid that was negative in the short-term treatment and positive in the 24 h treatment. HC Blue No. 2 gave also same test results. 4-Nitroanthranilic acid, but not HC Blue No. 2, increased clearly the mutant efficiency in dose-dependent manner even at the low-dose range in the 24 h treatment (Additional file 1 (Table S1 (No.8)), we selected the chemical for the proteomics. Cell treatment with 4-nitroanthranilic acid was the same as the short-time treatment (4 h, −S9mix) and long-term treatment (24 h, −S9mix) in the TK6 assay. Treatment concentrations were 0, 400, and 800 μg/mL, relatively low toxicity doses, to clearly measure biological responses to the chemical. After treatment, the supernatant was removed by centrifugation (1000 rpm, 5 min). The cell pellet (6 × 10^6 cells) was washed with a 10 mL of ice-cold phosphate-buffered saline (PBS) and centrifuged (repeated twice on ice throughout). The cells were resuspended in 3 mL of PBS containing the protease inhibitor cocktail (Roche), complete EDTA-free (Roche), and 2 × 10^6 cells each were dispensed into three pre-cooled 2.0 mL tubes. After centrifugation, supernatants were removed again, and tubes containing cell pellets were immersed in liquid nitrogen to freeze the cell pellet and stored at − 80 °C.
Each frozen cell pellet was mixed with PTS (phase transfer surfactant) buffer and boiled at 95 °C for 5 min [44]. Lysates were further sonicated three times (15 min per cycle) with a Bioruptor sonicator (Cosmo Bio, Tokyo, Japan). Samples were then reduced with 10 mM TCEP (tris(2-carboxyethyl) phosphine), alkylated with 20 mM iodoacetamide, and sequentially, digested with trypsin (protein weight: 1/50) and Lys-C (protein weight: 1/50) for 16 h at 37 °C. Peptides were elucidated by centrifugation for 10 min at 20,000 g and desalted on a C18-SCX StageTips.
LC-MS/MS was conducted by coupling an UltiMate 3000 Nano LC system (Thermo Scientific, Bremen, Germany) and an HTC-PAL autosampler (CTC Analytics, Zwingen, Switzerland) to a Q Exactive hybrid quadrupole-Orbitrap mass spectrometer (Thermo Scientific). […] The Q Exactive instrument was operated in the data-dependent mode. Survey full-scan MS spectra (m/z 350–1800) were acquired in the Orbitrap with 70,000 resolution after the accumulation of ions to a 3 × 10^6 target value. Dynamic exclusion was set to 10 s. The 12 most intense multiplied charged ions (z ≥ 2) were sequentially accumulated to a 1 × 10^5 target value and fragmented in the collision cell by higher-energy collisional dissociation (HCD) with a maximum injection time of 120 ms and 35,000 resolution. Typical mass spectrometric conditions were: spray voltage, 2 kV; heated capillary temperature, 250 °C; and normalized HCD collision energy, 25%. The MS/MS ion selection threshold was set to 2.5 × 10^4 counts. A 2.0 Da isolation width was chosen.
Raw MS data were processed by MaxQuant (version 1.6.3.3) supported by the Andromeda search engine for peak detection and quantification. MS/MS spectra were searched against the UniProt human database with the following search parameters: full tryptic specificity, up to two missed cleavage sites, carbamidomethylation of cysteine residues set as a fixed modification, and N-terminal protein acetylation and methionine oxidation as variable modifications. Search results were filtered to a maximum FDR (false discovery rate) of 0.01 at protein, and PSM levels.
All NaN values of log2 LFQ intensities were converted to − 7, which is approximately equivalent to the minimum value of the LFQ intensities observed in the present study. Then, fold change values were calculated by dividing LFQ intensities (antilogarithms of the log2 LFQ intensities) into sample treated groups by intensities in non-treated (control) groups, respectively (4 and 24 h treated groups). Then, log2 fold changes were calculated. […]

The structures appear in SMILES notation. Entries after “also recorded” stand apart in the source; their conditions may differ.

As to `Nc1cc([N+](=O)[O-])ccc1C(=O)O` [4-Nitroanthranilic acid], the “LFQ intensity, Ubiquitin-like modifier-activating enzyme 6 (UBA6, A0AVT1)” value was -1.467 (400µg/mL, 4h); -1.516 (400µg/mL, 24h); -1.5621 (800µg/mL, 4h); -1.659 (800µg/mL, 24h). Where the note is “800µg/mL, 4h”, the “LFQ intensity, RNA-binding protein 47 (RBM47, A0AV96)” value is -2.739. Under “800µg/mL, 4h”, the “LFQ intensity, von Willebrand factor A domain-containing protein 8 (VWA8, A3KMH1)” value is given as -1.1722. The DEPs is, setting by setting: (4 h 400 μg/mL group) 359 proteins; (4 h 800 μg/mL group) 506 proteins; (24 h 400 μg/mL group) 358 proteins; (24 h 800 μg/mL group) 420 proteins. For the same molecule, the “Protein expression levels of PDK1, SOD2, DIABLO” value (24 h treatment, especially 800 μg/mL group) was “drastically elevated; also recorded: expressed prominently”. Besides, the “enrichment of GO:0008631 ~ intrinsic apoptotic signaling pathway in response to oxidative stress” value (DEPs and specific DEPs in 24 h 800 μg/mL group) was “drastically increased; also recorded: statistically significance”. Besides, the “differentially expressed proteins (DEPs), total” value (all four groups, log2 fold change of ≥2 vs control) is recorded as 1078 proteins.
